Results are given in words; binding and its absence hold for the method and conditions named. In cells and extracts the contact can be indirect. Some results given as binding are weak or reduced against the parent protein; the word gives no strength.
Target: inositol-requiring enzyme-1 alpha (IRE1α) (UniProt O75460)
Assay: co-IP; immunoprecipitation in 293 T cells; IgG as negative control; which protein was precipitated is not told

The chains behind the UniProt entries cited, without tags or fusion partners. Residues count along the entry.
UniProt O75460, residues 19-977: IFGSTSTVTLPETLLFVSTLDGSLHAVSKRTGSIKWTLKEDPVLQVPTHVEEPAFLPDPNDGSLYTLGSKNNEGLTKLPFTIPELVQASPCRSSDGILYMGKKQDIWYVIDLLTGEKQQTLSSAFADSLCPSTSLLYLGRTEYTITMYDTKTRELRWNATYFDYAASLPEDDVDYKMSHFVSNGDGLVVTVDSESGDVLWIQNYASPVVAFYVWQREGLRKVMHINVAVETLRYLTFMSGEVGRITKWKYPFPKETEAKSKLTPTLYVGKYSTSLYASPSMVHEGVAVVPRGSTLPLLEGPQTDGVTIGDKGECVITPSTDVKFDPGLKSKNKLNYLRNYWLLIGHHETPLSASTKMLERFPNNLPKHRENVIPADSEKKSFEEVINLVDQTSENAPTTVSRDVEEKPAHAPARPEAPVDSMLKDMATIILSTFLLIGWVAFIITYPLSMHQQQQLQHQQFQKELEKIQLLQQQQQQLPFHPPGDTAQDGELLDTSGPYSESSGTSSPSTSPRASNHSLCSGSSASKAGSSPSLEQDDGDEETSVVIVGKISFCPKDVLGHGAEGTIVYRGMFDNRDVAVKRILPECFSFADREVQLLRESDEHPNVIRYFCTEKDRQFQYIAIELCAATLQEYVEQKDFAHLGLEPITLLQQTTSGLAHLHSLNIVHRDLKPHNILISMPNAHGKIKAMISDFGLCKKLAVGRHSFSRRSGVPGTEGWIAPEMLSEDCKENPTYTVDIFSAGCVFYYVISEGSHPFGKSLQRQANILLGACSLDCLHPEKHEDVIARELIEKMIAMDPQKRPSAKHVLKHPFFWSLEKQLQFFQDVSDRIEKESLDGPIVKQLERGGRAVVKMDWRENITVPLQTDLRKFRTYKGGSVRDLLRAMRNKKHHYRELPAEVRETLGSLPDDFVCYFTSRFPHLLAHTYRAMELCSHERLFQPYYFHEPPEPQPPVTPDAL

B1: mesencephalic astrocyte-derived neurotrophic factor (MANF) (protein, UniProt P55145 25-182)
chain: LRPGDCEVCISYLGRFYQDLKDRDVTFSPATIENELIKFCREARGKENRLCYYIGATDDAATKIINEVSKPLAHHIPVEKICEKLKKKDSQICELKYDKQIDLSTVDLKKLRVKELKKILDDWGETCKGCAEKSDYIRKINELMPKYAPKAASARTDL
- binding: binds
